The record followed here is article PMC5915391.

Sequences of proteins named here, by UniProt entry; tags and fusion partners are left off. A line that says so, or that is headed by a name, gives the form on record, which may keep a tag or linker. Residues count along the entry.
FLAG-tagged MLL (1-1251aa) (Q03164, residues 1-1251): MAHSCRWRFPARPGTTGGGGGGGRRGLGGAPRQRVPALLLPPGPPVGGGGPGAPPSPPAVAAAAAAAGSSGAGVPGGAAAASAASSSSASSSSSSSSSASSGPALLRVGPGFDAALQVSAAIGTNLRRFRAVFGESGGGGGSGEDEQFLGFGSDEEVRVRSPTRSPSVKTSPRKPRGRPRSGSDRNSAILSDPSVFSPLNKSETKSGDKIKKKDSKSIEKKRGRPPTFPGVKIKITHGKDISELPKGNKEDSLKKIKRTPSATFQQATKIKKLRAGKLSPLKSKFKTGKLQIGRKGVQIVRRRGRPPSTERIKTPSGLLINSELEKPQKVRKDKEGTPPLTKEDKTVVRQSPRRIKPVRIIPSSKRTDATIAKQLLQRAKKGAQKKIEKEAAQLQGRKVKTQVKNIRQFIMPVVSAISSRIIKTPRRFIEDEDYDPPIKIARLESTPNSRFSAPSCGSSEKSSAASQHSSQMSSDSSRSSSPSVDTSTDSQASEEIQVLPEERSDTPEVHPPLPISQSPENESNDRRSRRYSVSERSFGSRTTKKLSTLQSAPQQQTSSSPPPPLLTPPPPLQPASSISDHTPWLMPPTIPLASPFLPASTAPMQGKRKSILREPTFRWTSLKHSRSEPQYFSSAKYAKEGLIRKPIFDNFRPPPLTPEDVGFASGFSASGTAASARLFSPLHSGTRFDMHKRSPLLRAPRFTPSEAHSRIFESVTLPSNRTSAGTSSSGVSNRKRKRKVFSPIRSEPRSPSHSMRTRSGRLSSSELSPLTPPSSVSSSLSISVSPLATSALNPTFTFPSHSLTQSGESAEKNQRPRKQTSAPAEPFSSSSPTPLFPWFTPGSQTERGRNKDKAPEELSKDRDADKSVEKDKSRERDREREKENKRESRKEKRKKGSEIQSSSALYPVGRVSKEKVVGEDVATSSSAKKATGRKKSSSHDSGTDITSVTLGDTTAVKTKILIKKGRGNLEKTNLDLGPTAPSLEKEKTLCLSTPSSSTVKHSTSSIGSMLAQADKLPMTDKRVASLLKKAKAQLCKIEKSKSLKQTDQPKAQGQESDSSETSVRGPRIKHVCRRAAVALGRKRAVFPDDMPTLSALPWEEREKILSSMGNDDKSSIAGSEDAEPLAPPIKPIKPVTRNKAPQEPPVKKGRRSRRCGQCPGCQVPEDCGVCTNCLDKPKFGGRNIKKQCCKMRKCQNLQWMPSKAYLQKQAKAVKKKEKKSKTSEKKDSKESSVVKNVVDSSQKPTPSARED
FLAG-tagged MLL (1-540aa) (Q03164, residues 1-540): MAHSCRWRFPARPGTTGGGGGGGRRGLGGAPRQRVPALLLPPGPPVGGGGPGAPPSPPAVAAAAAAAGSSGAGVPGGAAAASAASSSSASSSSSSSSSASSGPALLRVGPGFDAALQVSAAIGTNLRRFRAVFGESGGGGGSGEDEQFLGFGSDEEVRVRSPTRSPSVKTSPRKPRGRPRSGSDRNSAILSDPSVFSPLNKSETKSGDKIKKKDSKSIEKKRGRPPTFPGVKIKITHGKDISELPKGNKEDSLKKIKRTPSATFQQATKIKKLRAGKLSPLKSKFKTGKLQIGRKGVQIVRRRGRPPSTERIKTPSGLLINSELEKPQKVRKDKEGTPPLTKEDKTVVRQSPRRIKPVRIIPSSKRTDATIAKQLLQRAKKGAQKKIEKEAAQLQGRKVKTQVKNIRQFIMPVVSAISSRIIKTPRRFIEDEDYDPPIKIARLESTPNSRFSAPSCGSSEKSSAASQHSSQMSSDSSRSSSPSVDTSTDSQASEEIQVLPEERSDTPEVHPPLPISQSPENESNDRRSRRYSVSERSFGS
UniProt Q9C0J9: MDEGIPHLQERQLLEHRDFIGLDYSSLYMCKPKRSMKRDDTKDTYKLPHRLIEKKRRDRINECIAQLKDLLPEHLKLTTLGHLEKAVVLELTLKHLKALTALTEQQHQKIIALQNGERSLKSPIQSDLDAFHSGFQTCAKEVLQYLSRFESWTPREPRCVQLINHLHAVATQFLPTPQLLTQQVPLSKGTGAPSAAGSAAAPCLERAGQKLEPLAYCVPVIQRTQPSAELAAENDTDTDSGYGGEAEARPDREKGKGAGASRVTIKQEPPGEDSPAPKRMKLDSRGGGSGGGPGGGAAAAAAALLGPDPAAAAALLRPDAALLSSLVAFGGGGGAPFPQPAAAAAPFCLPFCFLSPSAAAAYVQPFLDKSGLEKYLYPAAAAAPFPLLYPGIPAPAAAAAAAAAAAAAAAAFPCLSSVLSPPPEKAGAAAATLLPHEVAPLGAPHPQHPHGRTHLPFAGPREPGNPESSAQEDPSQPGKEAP

No constants are given. Whether binding was seen depends on the method and setting. Binding seen in cells or lysates may run through a third protein. Some entries that bind do so weakly or less than the wild type.

Assay [1] addresses FLAG-tagged MLL (1-1251aa) (UniProt Q03164). As to the kind of experiment: co-IP; 293T cells transfected with FLAG-tagged MLL deletion mutants and HA-tagged SHARP1; whole cell lysates; immunoprecipitation with anti-FLAG antibody, 4 °C; blots for FLAG and HA.
Assay [2] concerns the target FLAG-tagged MLL (1-540aa) (UniProt Q03164). Described as above.

In the case of “HA-tagged SHARP1 (human) (from UniProt Q9C0J9 1-482)”, the binding result in assay [1] is on record as “binds”; in assay [2], “no binding”.
